{"source": "paper PMC11684626", "key": {"[1]": {"biological_target": "T1, HA-PEG10 gag-pol (Homo sapiens) (UniProt Q86TG7)", "T1 sequence": "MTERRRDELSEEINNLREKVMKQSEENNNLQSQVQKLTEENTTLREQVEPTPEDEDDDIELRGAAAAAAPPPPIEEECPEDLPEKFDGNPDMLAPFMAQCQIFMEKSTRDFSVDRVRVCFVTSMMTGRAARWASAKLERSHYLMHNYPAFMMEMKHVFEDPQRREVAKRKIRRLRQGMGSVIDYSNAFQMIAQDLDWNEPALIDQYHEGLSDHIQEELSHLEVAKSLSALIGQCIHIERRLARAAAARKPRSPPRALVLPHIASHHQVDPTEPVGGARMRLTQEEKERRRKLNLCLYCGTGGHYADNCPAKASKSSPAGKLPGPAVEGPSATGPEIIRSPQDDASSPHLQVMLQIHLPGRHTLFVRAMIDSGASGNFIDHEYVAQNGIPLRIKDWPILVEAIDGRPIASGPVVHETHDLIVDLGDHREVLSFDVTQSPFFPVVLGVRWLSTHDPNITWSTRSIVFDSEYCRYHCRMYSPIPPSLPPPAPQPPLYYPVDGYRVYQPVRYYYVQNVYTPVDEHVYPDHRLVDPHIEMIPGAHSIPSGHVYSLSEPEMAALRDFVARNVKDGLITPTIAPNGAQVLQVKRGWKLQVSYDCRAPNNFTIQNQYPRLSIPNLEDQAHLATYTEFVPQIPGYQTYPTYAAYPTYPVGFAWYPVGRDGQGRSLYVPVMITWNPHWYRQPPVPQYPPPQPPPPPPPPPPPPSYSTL", "assay": "co-IP; co-immunoprecipitation of murine or human FLAG-RTL8 with HA-tagged human or murine PEG10; precipitating antibody, cell line and cross-linking not stated for this experiment"}, "[2]": {"biological_target": "T2, murine HA-tagged Peg10 (Mus musculus) (UniProt Q7TN75)", "T2 sequence": "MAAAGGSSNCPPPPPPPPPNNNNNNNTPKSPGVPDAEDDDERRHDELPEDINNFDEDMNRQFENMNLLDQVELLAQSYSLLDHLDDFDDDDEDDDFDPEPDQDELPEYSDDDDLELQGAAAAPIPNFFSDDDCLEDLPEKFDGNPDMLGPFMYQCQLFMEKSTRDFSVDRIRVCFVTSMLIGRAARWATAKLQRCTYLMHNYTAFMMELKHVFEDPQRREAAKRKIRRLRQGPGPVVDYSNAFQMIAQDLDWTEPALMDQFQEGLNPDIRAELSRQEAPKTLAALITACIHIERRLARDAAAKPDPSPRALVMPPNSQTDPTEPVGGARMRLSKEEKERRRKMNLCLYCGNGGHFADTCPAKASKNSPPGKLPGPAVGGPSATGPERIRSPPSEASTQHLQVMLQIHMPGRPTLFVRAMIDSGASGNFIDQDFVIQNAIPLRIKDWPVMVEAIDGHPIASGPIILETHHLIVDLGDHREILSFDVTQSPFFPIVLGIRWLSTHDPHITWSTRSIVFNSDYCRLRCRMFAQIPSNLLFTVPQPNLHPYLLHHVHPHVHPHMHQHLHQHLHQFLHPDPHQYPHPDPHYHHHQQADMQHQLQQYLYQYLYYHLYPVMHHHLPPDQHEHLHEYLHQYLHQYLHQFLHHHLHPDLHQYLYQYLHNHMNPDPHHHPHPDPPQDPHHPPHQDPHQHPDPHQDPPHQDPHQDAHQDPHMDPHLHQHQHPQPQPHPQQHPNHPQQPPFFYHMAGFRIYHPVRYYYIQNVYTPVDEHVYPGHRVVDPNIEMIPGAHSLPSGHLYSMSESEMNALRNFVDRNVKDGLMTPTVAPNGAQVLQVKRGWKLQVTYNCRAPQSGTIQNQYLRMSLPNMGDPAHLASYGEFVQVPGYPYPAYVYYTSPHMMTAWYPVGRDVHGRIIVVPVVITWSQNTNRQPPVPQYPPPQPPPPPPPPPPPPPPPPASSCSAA", "assay": "co-IP; co-immunoprecipitation of murine or human FLAG-RTL8 with HA-tagged human or murine PEG10; precipitating antibody, cell line and cross-linking not stated for this experiment"}}, "note": "These are yes or no findings as the source states them, for the method shown. Binding seen in cells or lysates may run through a third protein. Some results given as binding are weak or reduced against the parent protein; the word gives no strength. Tags and fused reporters may be left off the sequences shown.", "data": [{"binder": "FLAG-MmRtl8b (protein, UniProt Q9D1F0 1-113) MEGQGKVKRPKAYMLRHNRRRRRRNPIPFPELFDGEMDKLPEFIVQTGSYMLVDDRTFDTDELKVTFLITRLKGRALQWVIPYIKIDSPLLNDYNGFLNEMKRVFGWEEDEDF", "values": [{"measurement": "binding", "setting": "[1]", "value": "binds"}, {"measurement": "binding", "setting": "[2]", "value": "binds"}]}]}
